From article PMC12603192 come the findings set out here.

What all share (assay): co-IP; tagged proteins co-expressed (HEK293T for Fig. 2B); lysis in 1% NP-40, 20 mM Tris-HCl pH 7.6, 150 mM NaCl, 2 mM EDTA; magnetic beads overnight at 4 °C, five washes; immunoblot
The target of one test is T1, MYC-MARCH2 (human) (UniProt Q9P0N8).
T1 sequence: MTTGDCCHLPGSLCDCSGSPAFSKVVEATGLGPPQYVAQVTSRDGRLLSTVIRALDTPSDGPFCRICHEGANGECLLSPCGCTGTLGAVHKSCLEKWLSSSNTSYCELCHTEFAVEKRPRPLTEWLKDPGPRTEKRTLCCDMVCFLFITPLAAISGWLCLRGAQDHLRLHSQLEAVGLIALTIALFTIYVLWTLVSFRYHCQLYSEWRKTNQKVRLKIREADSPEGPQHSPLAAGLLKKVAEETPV

Test [1] deals with HA-MARCH2 RING domain alone (human).
Test [2] concerns the target HA-MARCH2 TM-containing C-terminus (human).
The target of test [3] is HA-MARCH2 with TM1 deleted (human) (UniProt Q9P0N8).

No constants are given. Whether binding was seen depends on the method and setting. Binding seen in cells or lysates may run through a third protein. For some of these results: A result given as binding can be weak or reduced; the word gives no strength. Tags and fused reporters may be left off the sequences shown.

In the case of “ALK5 transmembrane (TM)-containing N-terminus (human) (domain or fragment)”, the binding result with MYC-MARCH2 (human) is recorded as “binds weakly”.

B1: FLAG-ALK5 (receptor, UniProt P36897 34-503)
chain: LQCFCHLCTKDNFTCVTDGLCFVSVTETTDKVIHNSMCIAEIDLIPRDRPFVCAPSSKTGSVTTTYCCNQDHCNKIELPTTVKSSPGLGPVELAAVIAGPVCFVCISLMLMVYICHNRTVIHHRVPNEEDPSLDRPFISEGTTLKDLIYDMTTSGSGSGLPLLVQRTIARTIVLQESIGKGRFGEVWRGKWRGEEVAVKIFSSREERSWFREAEIYQTVMLRHENILGFIAADNKDNGTWTQLWLVSDYHEHGSLFDYLNRYTVTVEGMIKLALSTASGLAHLHMEIVGTQGKPAIAHRDLKSKNILVKKNGTCCIADLGLAVRHDSATDTIDIAPNHRVGTKRYMAPEVLDDSINMKHFESFKRADIYAMGLVFWEIARRCSIGGIHEDYQLPYYDLVPSDPSVEEMRKVVCEQKLRPNIPNRWQSCEALRVMAKIMRECWYANGAARLTALRIKKTLSQLSQQEGIKM
Consider B1, for which the binding entry is recorded as “no binding” in test [1], “binds” in test [2] and “binds” in test [3].
